Measurements taken from PubChem BioAssay AID2718 (Broad Institute, 2010).
About 480 (0.15%) of roughly 320,000 compounds were called active. The shares of active, inactive and inconclusive entries below differ from those in the screen. Cut-off read from the data, not from the text of the source: active = inhibition above about 26% (passing the limit was not always enough); inconclusive = no clear call, values can overlap the other calls.

Protein sequences, listed by entry. Tags and fused reporters are not part of them.
UniProt O15379, whole entry, looked up: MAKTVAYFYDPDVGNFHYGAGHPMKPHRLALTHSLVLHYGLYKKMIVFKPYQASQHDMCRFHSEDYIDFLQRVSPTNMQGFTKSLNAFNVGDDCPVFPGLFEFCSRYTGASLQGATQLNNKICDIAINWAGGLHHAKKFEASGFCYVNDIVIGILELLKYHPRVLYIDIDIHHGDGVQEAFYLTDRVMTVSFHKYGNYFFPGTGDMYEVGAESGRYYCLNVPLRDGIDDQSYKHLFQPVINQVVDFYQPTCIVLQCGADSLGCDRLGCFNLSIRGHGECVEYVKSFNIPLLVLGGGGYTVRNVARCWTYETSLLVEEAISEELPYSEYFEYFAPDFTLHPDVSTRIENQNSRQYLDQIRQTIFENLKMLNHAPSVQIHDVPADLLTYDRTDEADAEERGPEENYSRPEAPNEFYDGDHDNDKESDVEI

target: Histone deacetylase 3 (Homo sapiens) (UniProt O15379); assay: HDAC3 deacetylase inhibitors, primary screen, biochemical, fluorescence, cell-free homogeneous (AID 2718); conditions: recombinant HDAC3, fluorogenic peptide/trypsin coupled, at 8.3 µM, active compounds read high

SMILES | inhibition
Cn1cccc1C(C#N)c1ncc(C(F)(F)F)cc1Cl (centres undefined) | inconclusive: 16.8%
CC(=O)NCCc1ccc(O)cc1 | inconclusive: 18.5%
COc1cccc(OC)c1CC1SC(=O)NC1=O (centres undefined) | inconclusive: 13.2%
CCOC(=O)c1ccc(N2C(=O)CC(N3CCOCC3)C2=O)cc1 (centres undefined) | inactive: -0.48%
CC(=O)Nc1ccc(C(=O)CN2C(=O)CSC2=O)cc1 | inconclusive: 18.3%
C=CCN(CC=C)CCOc1cc(C)ccc1[N+](=O)[O-] | inconclusive: 17.6%
COc1ccc(CNC(=O)CSc2nc(SC)ns2)cc1 | inactive: 13.2%
CN1C(=O)c2ccccc2NC(=O)[C@]12O[C@@H]2c1cccc(O)c1 | inactive: -2.25%
CCOc1c(/C=C(\C#N)C(N)=O)c2ccccc2n1CC | inconclusive: 14.3%
O=C1C(Cl)=C(NC(=O)c2ccccc2)C(=O)C(Cl)=C1NC(=O)c1ccccc1 | inconclusive: 36.1%
COc1ccccc1N1CCN(S(=O)(=O)c2c(C)[nH]c(=O)[nH]c2=O)CC1 | inactive: -8.3%
Cc1ccc(NC(=O)CSc2ncc3ccccn23)cc1 | inconclusive: 13.1%
O=C(CN1CCN(S(=O)(=O)/C=C/c2ccccc2)CC1)NC(=O)NCc1ccco1 | inconclusive: 20.9%
CC(Sc1nnc(N)s1)C(=O)NC1CCCCC1C (centres undefined) | inconclusive: 17.6%
COc1ccc(OCc2nc3ccccc3n2C(C)C)cc1 | inconclusive: 13.7%
Cc1onc(-c2ccccc2)c1C(=O)Nc1ccc(-c2nnc3n2CCCCC3)cc1 | inconclusive: 11.3%
O=C(NC(=S)NNC(=O)c1cnccn1)c1ccc(F)cc1 | inactive: 1.81%
CCOC1(OCC)C(c2ccc(N)cc2)C(C#N)(C#N)C1(OCC)OCC (centres undefined) | inconclusive: 22.9%
Cn1c(CNC(=O)CNC(=O)Cc2ccccc2)cc(=O)n(C)c1=O | inconclusive: 16.7%
O=C(CC1SC(=O)N(c2ccccc2)C1=O)Nc1ccc(Cl)cc1 (centres undefined) | active: 45.5%
CCOC(=O)c1cc(NC(=O)Nc2ccccn2)c(C)nc1C | inconclusive: 26.3%
CN(CC1COc2ccccc2O1)C(=O)CSc1nncs1 (centres undefined) | inactive: -5.54%
COC(=O)c1cccc(NC(=O)Cn2cnc3ccccc3c2=O)c1 | inconclusive: 15.8%

Pulled by structure from above, two records:
SMILES | inhibition
COC(=O)c1cccc(NC(=O)Cn2cnc3ccccc3c2=O)c1 | inconclusive: 15.8%
CCOC(=O)c1ccc(N2C(=O)CC(N3CCOCC3)C2=O)cc1 (centres undefined) | inactive: -0.48%

Continued:

SMILES | inhibition
O=C(O)C1CCN(C(=O)c2ccco2)CC1 | inconclusive: 24.9%
CCN1CCN(C(=O)C2c3cc(OC)c(OC)cc3C(=O)N(C)C2c2ccc(SC)cc2)CC1 (centres undefined) | active: 28.2%
CCOc1ccccc1C(=O)N/N=C/c1coc2ccc(Cl)cc2c1=O | active: 32.3%
O=C(c1ccc(C(F)(F)F)cc1)C1CCCN(C(=O)CCN2CCCO2)C1 (centres undefined) | inconclusive: 16.7%
CCc1nnc(NS(=O)(=O)c2ccc(NC(=O)/C=C/c3ccc(F)cc3)cc2)s1 | inconclusive: 24%
O=C(O)c1ccccc1C(=O)NCc1cccnc1 | inconclusive: 11.7%
Cc1sc2nnn(CC(=O)N3CCN(C(=O)c4ccco4)CC3)c(=O)c2c1C | inconclusive: 20.4%
O=C(O)c1ccccc1CSc1nc2ccccc2o1 | inconclusive: 19.3%
Cc1ccc(N2C(=O)N(CC(=O)N3CCCc4ccccc43)C(=O)C2C)cc1 (centres undefined) | inconclusive: 16.4%
C=CCOc1cccc(/C=N/NC(=O)CN(c2cc(Cl)ccc2OC)S(=O)(=O)c2ccc(C)c([N+](=O)[O-])c2)c1 | inconclusive: 14.4%
CC(=O)Oc1ccc(/C(C)=N/N2CCN(Cc3ccc(C)cc3)CC2)cc1 | inconclusive: 17.7%
O=C1CSC(c2ccccc2[N+](=O)[O-])N1c1cccc(F)c1 (centres undefined) | inactive: -2.67%
Cc1ccc2nc(SCC(=O)NCc3ccco3)[nH]c2c1 | inactive: 2.5%
Cc1ccc(S(=O)(=O)N(C)c2ccc(OCC(=O)N3CCCC(C(F)(F)F)C3)cc2)cc1 (centres undefined) | inconclusive: 18%
Cc1ccc(-n2sc3ccccc3c2=O)cc1 | active: 51.6%
COc1ccc(C(=O)Oc2cc(N)n(S(=O)(=O)c3ccccc3)n2)cc1 | inconclusive: 17.3%
C=CCC[C@H](Cc1ccc(F)cc1)C(=O)O[C@H](CNC(=O)[C@@H](CC=C)CC(=O)N(CCO)Cc1ccccc1)c1ccccc1 | inconclusive: 24.1%
NC(=O)c1ccc(NCC2COc3ccccc3O2)c([N+](=O)[O-])c1 (centres undefined) | inconclusive: 20.6%
CS(=O)(=O)N1CCCC(C(=O)Nc2ccc3c(c2)OCCO3)C1 (centres undefined) | inconclusive: 18.5%
OC1CCCN(Cc2cn(Cc3ccccc3)nc2-c2cc3ccccc3o2)C1 (centres undefined) | inactive: 1.31%
CCC(C)Nc1nc2c(c(=O)n(C)c(=O)n2C)n1Cc1cccc(C)c1 (centres undefined) | inactive: -2.84%
Cc1cccc(N2CCN(Cc3nc(CC4CC4)no3)CC2)n1 | inactive: 6.57%
CC(C)CCOP(=O)(c1ccc(N(C)C)cc1)C(O)c1ccc(C(C)C)cc1 (centres undefined) | inconclusive: 19.3%

SMILES | inhibition
O=C(NCC(c1ccc(F)cc1)N1CCOCC1)c1ccco1 (centres undefined) | inconclusive: 24.9%
COc1cccc(C2=NOC(C(=O)NCc3ccc(F)cc3)C2)c1 (centres undefined) | inactive: -2.24%
C[C@H](CO)N1C[C@H](C)[C@@H](CN(C)C(=O)Nc2ccc(C(F)(F)F)cc2)Oc2c(NC(=O)Nc3ccc(C(F)(F)F)cc3)cccc2C1=O | inconclusive: 26.7%
C=CC[N+](C)(C)CCN1C(=O)C2C(c3ccccc3)C=CC(c3ccccc3)C2C1=O (centres undefined) | inconclusive: 11.1%
CCN(CC)c1ccc(/C=N/n2nnnc2N)c(O)c1 | inconclusive: 17.7%
O=C(NCCN1CCOCC1)c1ccc(NS(=O)(=O)c2ccccc2)cc1 | inconclusive: 11.4%
Cc1ccc(NC(=O)CNc2cccc(S(=O)(=O)N3CCCC3)c2)cc1F | inactive: 2.62%
Cc1ccc(N/C=C2/Sc3ccccc3NC2=O)cc1 | inactive: 9.77%
CCc1nc(SCc2ccc(F)cc2)[nH]c(=O)c1C#N | inactive: 0.099%
COc1cccc(NC(=O)CSc2nnc(Cc3cccs3)n2-c2ccc(C)cc2)c1 | inconclusive: 22.8%
CC(C)(C)OC(=O)NCCCC[C@H](NC(=O)c1nc[nH]c1C(=O)NC1CCN(C(=O)OC(C)(C)C)CC1)C(=O)OC(C)(C)C | inconclusive: 24.9%
CC1(C)CC(=O)C=C(c2ccc3[nH]ccc3c2)C1 | inconclusive: 17.6%
O=C(CSc1nc2ccccc2c(=O)n1CC1CCCO1)NCC1CCCO1 (centres undefined) | inactive: -9.49%
Cc1cc(F)ccc1NC(=O)Cn1c(C)csc1=O | inactive: -1.83%
COc1ccc(NC(=S)NCc2ccc(S(N)(=O)=O)cc2)cc1OC | inconclusive: 24.8%
O=C(CC(SCCO)c1ccc2c(c1)OCO2)c1cccs1 (centres undefined) | inconclusive: 25.7%
COc1cc(-c2nnc(SCC(=O)NC3CCS(=O)(=O)C3)o2)cc(OC)c1OC (centres undefined) | inactive: -0.394%
O=C(NCc1ccccc1Cl)c1ccc(S(=O)(=O)Nc2cccc(C(F)(F)F)c2)cc1 | inconclusive: 22.8%
CN(Cc1ccccc1)C(=S)Nc1ccc2nc3n(c(=O)c2c1)CCCCC3 | inactive: -0.96%
CCO[C@H]1OC(C(=O)NCc2nc3ccccc3[nH]2)=C[C@@H](C)[C@@H]1CCCO | inactive: 3.86%
COc1cc(OC)nc(NC(=O)CN2CCN(c3ccc(F)cc3)CC2)n1 | inactive: 6.05%
Cn1cc(S(=O)(=O)Nc2ccc(OC(F)(F)F)cc2)c(=O)n(C)c1=O | inconclusive: 12.1%
O=S(=O)(/N=C(/Nc1cccc2ccccc12)c1ccccc1)c1ccc(F)cc1 | inconclusive: 23.7%

SMILES | inhibition
COc1ccc(F)cc1S(=O)(=O)N1CCN(Cc2ccc3c(c2)OCO3)CC1 | inconclusive: 19.3%
COC(=O)c1nc(Cl)c(Cl)c(N)c1Cl | inactive: -10.2%
CSc1ccc(/C=C(/NC(=O)c2ccccc2)C(=O)NCCN2CCOCC2)cc1 | inactive: 6.27%
CN(C)CC(O)COC(c1ccc(Cl)cc1)c1ccc(Cl)cc1 (centres undefined) | inconclusive: 20.8%
CC(=O)n1nc(-c2ccccc2)nc1NCc1ccc(F)cc1 | active: 32.1%
CC1(NC(=O)CC(c2ccccc2)(c2ccccc2)c2ccccc2)CCN(CCCc2ccccc2)C1=O (centres undefined) | inconclusive: 21.4%
Cc1ccccc1NC(=O)N1CCCC(c2nc(-c3ccc(C(C)C)cc3)no2)C1 (centres undefined) | inactive: -1.84%
O=C(CSc1nnc2n1CCCCC2)Nc1ccc(N2CCOCC2)cc1 | inactive: -2.97%
COc1ccccc1NS(=O)(=O)c1ccc(O)c(C(=O)OCC(=O)c2ccc(Cl)cc2Cl)c1 | inactive: 2.06%
CCn1c(Cc2cccn2C)nnc1SCC(=O)c1ccc(C)cc1 | inconclusive: 24.1%
COc1ccc(-c2[nH]c3ccccc3c2SCCNC(=O)c2ccccc2)cc1 | inactive: 6.01%
N#Cc1c(F)cccc1NCCCn1ccnc1 | inactive: -7.81%
N#CC(C(=S)Nc1ccccc1)c1nc2ccccc2[nH]1 (centres undefined) | inconclusive: 12.2%
Nc1ccc2nc(COc3ccccc3)[nH]c2c1 | inactive: 6.15%
O=[N+]([O-])c1cc([N+](=O)[O-])c2cccnc2c1Oc1ccccc1O | inactive: 8.96%
O=C(CSC(=S)N1CCOCC1)Nc1ncc2c(n1)CCCC2=O | inconclusive: 14%
COc1ccccc1CNc1cc(CSc2ccc(Cl)cc2)nc(C)n1 | inactive: 4.45%
CCN(CC)c1ccc(NC(=O)c2cc(Cl)ccc2OC)cc1 | inactive: 8.65%
CCC(=O)Nc1nc2cc(OC)ccc2s1 | inconclusive: 15.9%
O=C(Nc1ccncc1)c1cc(S(=O)(=O)N2CCCC2)ccc1Cl | inconclusive: 16.1%

Of the compounds above, these have a thiophene ring, fused or not.
SMILES | inhibition
Cc1sc2nnn(CC(=O)N3CCN(C(=O)c4ccco4)CC3)c(=O)c2c1C | inconclusive: 20.4%
COc1cccc(NC(=O)CSc2nnc(Cc3cccs3)n2-c2ccc(C)cc2)c1 | inconclusive: 22.8%
O=C(CC(SCCO)c1ccc2c(c1)OCO2)c1cccs1 (centres undefined) | inconclusive: 25.7%
